{"source": "PubChem BioAssay AID1224828 – NIAID – 2016", "test": "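Find genes required for NF-kappaB p65 moving into the nucleus after LPS in mouse macrophages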 (primary screen)", "cell system": "mouse RAW264.7 G9 macrophage reporter cells (GFP-p65, Tnf promoter-mCherry)", "knock-down reagent": "siRNA pool against mouse genes, 100 nM", "time to read-out": "2 days siRNA transfection, then 40 min LPS before fixation", "conditions": "LPS (Salmonella minnesota R595) at 10 ng/ml", "measured": "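Imaged p65 nuclear translocation ratio, normalised to the plate median, converted to robust z-scores and averaged across two replicates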", "scale": "p65 translocation robust z-score: higher = more nuclear NF-kappaB p65 after LPS than the plate median; nuclear/cytoplasmic p65 ratio: higher = more nuclear NF-kappaB p65", "rule for the call": "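Active if robust z is above 3.3 (negative regulators) or below -1.56, the Tlr4 control median (positive regulators); activity score 50 or more; control wells not called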", "calls": "active = hit (p65 shift raised or lowered); inactive = no clear change", "note": "The deposit covers about 17,000 reagents; this is an unselected part. 762 of all reagents (4.5%) count as active. 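Active calls include both raised and lowered p65 entry, mostly lowered; wells with fewer than 50 cells lack a z-score.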 Raw values vary from plate to plate and are shown uncorrected."}
{"Gene": "Mrgpra6 (GeneID 381886)", "p65 translocation robust z-score": 0.44, "nuclear/cytoplasmic p65 ratio, rep 1": 1.77, "nuclear/cytoplasmic p65 ratio, rep 2": 1.73, "low cell count flag": "enough cells to score", "activity call": "inactive"}
{"Gene": "Pelp1 (GeneID 75273)", "p65 translocation robust z-score": 0.54, "nuclear/cytoplasmic p65 ratio, rep 1": 1.64, "nuclear/cytoplasmic p65 ratio, rep 2": 1.75, "low cell count flag": "enough cells to score", "activity call": "inactive"}
{"Gene": "Spesp1 (GeneID 66712)", "nuclear/cytoplasmic p65 ratio, rep 1": 1.03, "nuclear/cytoplasmic p65 ratio, rep 2": 0.996, "low cell count flag": "fewer than 50 cells per well; well left out of scoring", "activity call": "inactive"}
{"Gene": "Zbtb33 (GeneID 56805)", "p65 translocation robust z-score": -0.53, "nuclear/cytoplasmic p65 ratio, rep 1": 1.5, "nuclear/cytoplasmic p65 ratio, rep 2": 1.37, "low cell count flag": "enough cells to score", "activity call": "inactive"}
{"Gene": "Guca2b (GeneID 14916)", "p65 translocation robust z-score": -0.5, "nuclear/cytoplasmic p65 ratio, rep 1": 1.29, "nuclear/cytoplasmic p65 ratio, rep 2": 1.38, "low cell count flag": "enough cells to score", "activity call": "inactive"}
{"Gene": "Enpp5 (GeneID 83965)", "p65 translocation robust z-score": 2.57, "nuclear/cytoplasmic p65 ratio, rep 1": 2.02, "nuclear/cytoplasmic p65 ratio, rep 2": 1.51, "low cell count flag": "enough cells to score", "activity call": "inactive"}
{"Gene": "Araf (GeneID 11836)", "nuclear/cytoplasmic p65 ratio, rep 1": 1.35, "nuclear/cytoplasmic p65 ratio, rep 2": 1.3, "low cell count flag": "fewer than 50 cells per well; well left out of scoring", "activity call": "inactive"}
{"Gene": "Celsr3 (GeneID 107934)", "nuclear/cytoplasmic p65 ratio, rep 1": 1.41, "nuclear/cytoplasmic p65 ratio, rep 2": 1.62, "low cell count flag": "fewer than 50 cells per well; well left out of scoring", "activity call": "inactive"}
{"Gene": "Cuzd1 (GeneID 16433)", "p65 translocation robust z-score": -0.73, "nuclear/cytoplasmic p65 ratio, rep 1": 1.42, "nuclear/cytoplasmic p65 ratio, rep 2": 1.72, "low cell count flag": "enough cells to score", "activity call": "inactive"}
{"Gene": "Jag2 (GeneID 16450)", "p65 translocation robust z-score": 2.77, "nuclear/cytoplasmic p65 ratio, rep 1": 1.83, "nuclear/cytoplasmic p65 ratio, rep 2": 1.76, "low cell count flag": "enough cells to score", "activity call": "inactive"}
{"Gene": "Pbsn (GeneID 54192)", "p65 translocation robust z-score": 1.9, "nuclear/cytoplasmic p65 ratio, rep 1": 1.78, "nuclear/cytoplasmic p65 ratio, rep 2": 1.39, "low cell count flag": "enough cells to score", "activity call": "inactive"}
{"Gene": "Iqce (GeneID 74239)", "p65 translocation robust z-score": -0.36, "nuclear/cytoplasmic p65 ratio, rep 1": 1.32, "nuclear/cytoplasmic p65 ratio, rep 2": 1.4, "low cell count flag": "enough cells to score", "activity call": "inactive"}
{"Gene": "Gm20735 (GeneID 319574)", "p65 translocation robust z-score": -0.15, "nuclear/cytoplasmic p65 ratio, rep 1": 1.36, "nuclear/cytoplasmic p65 ratio, rep 2": 1.57, "low cell count flag": "enough cells to score", "activity call": "inactive"}
{"Gene": "Tmem150cos (GeneID 76003)", "p65 translocation robust z-score": -0.76, "nuclear/cytoplasmic p65 ratio, rep 1": 1.22, "nuclear/cytoplasmic p65 ratio, rep 2": 1.41, "low cell count flag": "enough cells to score", "activity call": "inactive"}
{"Gene": "Myo9a (GeneID 270163)", "nuclear/cytoplasmic p65 ratio, rep 1": 0.954, "nuclear/cytoplasmic p65 ratio, rep 2": 1.62, "low cell count flag": "fewer than 50 cells per well; well left out of scoring", "activity call": "inactive"}
{"Gene": "S100a16 (GeneID 67860)", "p65 translocation robust z-score": -0.96, "nuclear/cytoplasmic p65 ratio, rep 1": 1.24, "nuclear/cytoplasmic p65 ratio, rep 2": 1.15, "low cell count flag": "enough cells to score", "activity call": "inactive"}
{"Gene": "Tbc1d17 (GeneID 233204)", "nuclear/cytoplasmic p65 ratio, rep 1": 1.16, "nuclear/cytoplasmic p65 ratio, rep 2": 1.4, "low cell count flag": "fewer than 50 cells per well; well left out of scoring", "activity call": "inactive"}
{"Gene": "Serpinb5 (GeneID 20724)", "p65 translocation robust z-score": 0.63, "nuclear/cytoplasmic p65 ratio, rep 1": 1.82, "nuclear/cytoplasmic p65 ratio, rep 2": 1.47, "low cell count flag": "enough cells to score", "activity call": "inactive"}
{"Gene": "Dexi (GeneID 58239)", "p65 translocation robust z-score": 0.55, "nuclear/cytoplasmic p65 ratio, rep 1": 1.71, "nuclear/cytoplasmic p65 ratio, rep 2": 1.57, "low cell count flag": "enough cells to score", "activity call": "inactive"}
{"Gene": "Itih5 (GeneID 209378)", "p65 translocation robust z-score": 0.3, "nuclear/cytoplasmic p65 ratio, rep 1": 1.65, "nuclear/cytoplasmic p65 ratio, rep 2": 1.42, "low cell count flag": "enough cells to score", "activity call": "inactive"}
{"Gene": "Bcas3 (GeneID 192197)", "p65 translocation robust z-score": -0.89, "nuclear/cytoplasmic p65 ratio, rep 1": 1.34, "nuclear/cytoplasmic p65 ratio, rep 2": 1.37, "low cell count flag": "enough cells to score", "activity call": "inactive"}

Limited to “nuclear/cytoplasmic p65 ratio, rep 1”, for 2 of the entries above:
Pelp1 (GeneID 75273) = 1.64
Spesp1 (GeneID 66712) = 1.03
